From publication doi:10.1101/2020.03.05.978163
No constants are given. Whether binding was seen depends on the method and setting. Binding seen in cells or lysates may run through a third protein. Some entries that bind do so weakly or less than the wild type. Where a sequence is shown, tags or fusion partners need not be part of it.

Protein sequences, listed by entry. Tags and fused reporters are not part of them.
UniProt Q9W420: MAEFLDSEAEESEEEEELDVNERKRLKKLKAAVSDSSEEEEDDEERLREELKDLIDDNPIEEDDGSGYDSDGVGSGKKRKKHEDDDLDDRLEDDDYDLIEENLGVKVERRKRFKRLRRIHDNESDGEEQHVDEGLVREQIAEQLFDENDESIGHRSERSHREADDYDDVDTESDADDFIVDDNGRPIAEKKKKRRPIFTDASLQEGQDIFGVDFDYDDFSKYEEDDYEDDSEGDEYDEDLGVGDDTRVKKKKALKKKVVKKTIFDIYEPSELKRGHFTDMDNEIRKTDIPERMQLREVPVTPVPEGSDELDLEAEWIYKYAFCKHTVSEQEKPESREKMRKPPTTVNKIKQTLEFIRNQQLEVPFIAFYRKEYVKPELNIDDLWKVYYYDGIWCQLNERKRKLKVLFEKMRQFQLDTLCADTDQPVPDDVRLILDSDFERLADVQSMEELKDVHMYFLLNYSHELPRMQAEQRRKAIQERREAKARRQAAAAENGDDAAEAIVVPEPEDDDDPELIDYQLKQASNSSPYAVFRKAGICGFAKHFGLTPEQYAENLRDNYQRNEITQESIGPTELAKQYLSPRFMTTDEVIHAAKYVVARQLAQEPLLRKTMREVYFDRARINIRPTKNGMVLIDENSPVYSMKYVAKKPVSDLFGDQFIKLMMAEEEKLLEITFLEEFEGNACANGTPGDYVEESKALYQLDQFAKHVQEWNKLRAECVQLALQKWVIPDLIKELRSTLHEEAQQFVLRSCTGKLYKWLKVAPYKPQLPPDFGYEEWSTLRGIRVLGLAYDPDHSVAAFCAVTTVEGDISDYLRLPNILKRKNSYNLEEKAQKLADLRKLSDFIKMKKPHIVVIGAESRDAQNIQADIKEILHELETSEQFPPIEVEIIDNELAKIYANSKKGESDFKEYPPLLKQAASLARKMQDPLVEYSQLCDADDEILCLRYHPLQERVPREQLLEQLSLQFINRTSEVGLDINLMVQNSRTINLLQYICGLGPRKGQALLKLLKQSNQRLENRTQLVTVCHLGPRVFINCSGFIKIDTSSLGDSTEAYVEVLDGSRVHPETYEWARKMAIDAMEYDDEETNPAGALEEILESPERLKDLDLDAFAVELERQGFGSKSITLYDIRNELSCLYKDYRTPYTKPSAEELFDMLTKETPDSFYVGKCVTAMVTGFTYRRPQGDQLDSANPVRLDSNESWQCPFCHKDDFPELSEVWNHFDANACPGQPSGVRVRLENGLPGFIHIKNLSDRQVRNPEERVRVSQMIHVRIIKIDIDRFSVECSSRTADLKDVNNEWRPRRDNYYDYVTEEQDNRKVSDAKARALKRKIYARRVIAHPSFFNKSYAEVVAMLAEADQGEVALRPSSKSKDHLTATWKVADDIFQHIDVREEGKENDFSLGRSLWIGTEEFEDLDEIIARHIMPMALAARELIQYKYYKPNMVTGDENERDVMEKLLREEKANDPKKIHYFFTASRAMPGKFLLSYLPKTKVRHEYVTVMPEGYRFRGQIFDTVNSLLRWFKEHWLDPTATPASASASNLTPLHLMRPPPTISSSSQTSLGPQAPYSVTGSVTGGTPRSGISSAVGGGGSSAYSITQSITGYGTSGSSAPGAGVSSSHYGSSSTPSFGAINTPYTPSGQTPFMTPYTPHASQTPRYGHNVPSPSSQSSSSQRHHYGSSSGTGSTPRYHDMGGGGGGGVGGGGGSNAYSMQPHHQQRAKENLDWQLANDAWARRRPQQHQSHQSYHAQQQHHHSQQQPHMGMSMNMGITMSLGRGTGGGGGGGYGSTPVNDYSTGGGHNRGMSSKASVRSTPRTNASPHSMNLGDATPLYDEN

B1: HA-Fl(2)d (protein, UniProt Q9Y091 1-536)
chain: MSVAAMTMDDQRPCMNSYDKMPPTKYEQNLNILNSSQNSGATGGPASPTPSGLEDHHHHHHPHPHHHHHQEQQQQQQQQQHLQQQQQQQQQQHAAAVAEAVAAAEQRQRLLEDEIENLKLEQVRMAQQCADAQRREKILMRRLANKEQEFQDYVSQIAEYKAQQAPTALALRTALLDPAVNLLFERLKKELKATKAKLEETQNELSAWKFTPDSNTGKRLMAKCRLLYQENEELGKMTSNGRLAKLETELAMQKSFSEEVKKSQSELDDFLQELDEDVEGMQSTILFLQQELKTTRDRIQTLEKENAQLKQAIKDEVVAPAAATNGGTNTTINKLETIHEDACMANNPTNPDCYNGNTNNEQIAAVPQIPLSDDGSNMNGNAARLARKRNYQEEEALPTVVVVPTPTPVGNNVQEAPPIREVTAPRTLPPKKSKLRGITTRRNSQLEEDHQPVTTPVAVPMIVDNAVAGMASEEAAAAAAAVNNSNTGIIPETGVQVGVPVEGGDPGAPAAPGRILTRRRSVRMQQNGSGAVDYST
B2: HA-Ythdc1 (protein, UniProt Q9VZQ1 1-721)
chain: MPRAARKQTLPMREMADLDAVHLGLDENEADIAEELQDFEFNTRSEASESNGGDSSDSEPSISSVSTATSSLAGSSKRKTKKPAKQSPQPAVETKSSKSSAKNKAKREPTPEELNGGKKKKRTDSGTKKTTSSEASDKVKSKSPDTEDRQPSAKKSRTKIPSNANDSAGHKSDLSEAEDEKPSLPTLESDSESSDSDSGTQHKRNGGNGGGNGRGKPSSKSSTPEKDSVGGGTHSHSQKGYDYMTKLNYLFRDTRFFLIKSNNSDNVQLSKNKSVWATLPQNDANLNQAFKEARNVLLIFSVNESGKFAGFARMAAPSRRDIPQVAWVLPPSISPKALGGVIELDWICRKELSFNATLHLHNTWNEGKPVKIGRDGQEIEPKIGGELCRLFPEDEQIELTPILKKSKETARVMREKGIHVIYKPPRSLSSRGHGGGGRGGGRGSNHDHLGPMRHKRSYHGAPHHRPYRHHHGMGLPPGGGFKRSGSPYRQMGGAAGAPPGGPGDMAMPSWERYMSSAAAAEAYVADYMRNMHGQLPPLPFVPPFAQLPIPGAGAGAAGALPPGAAAAMYEQLPPPVRYYDGPGAPPLPDYPPPQRPPPPGFDKAPSYEEFAAWKNAGLPTVPPPGFPVYGGAANGGSNGAGGLAAAQAAAAGGGMGAGGGSGGGMGGPGGYRNRDGNNGSAGGRRREYGNRSGGGGSSRDSRPFRERGGGGGQRSYRDNRR

Biological target: Spt6 (Drosophila) (UniProt Q9W420)
Assay: co-IP

| Binder | binding |
| --- | --- |
| B1 | binds |
| B2 | binds |
